Experimental data taken from publication PMC4655355, “Structural insights into YfiR sequestering by YfiB in Pseudomonas aeruginosa PAO1” (Scientific Reports, 2015).
Results are given in words; binding and its absence hold for the method and conditions named. Some entries that bind do so weakly or less than the wild type.

By UniProt entry, the sequences of proteins in these tests, tags left out. Where a name states a change or a piece, a line headed by the entry shows the natural chain unless it says otherwise.
UniProt Q9I4L6: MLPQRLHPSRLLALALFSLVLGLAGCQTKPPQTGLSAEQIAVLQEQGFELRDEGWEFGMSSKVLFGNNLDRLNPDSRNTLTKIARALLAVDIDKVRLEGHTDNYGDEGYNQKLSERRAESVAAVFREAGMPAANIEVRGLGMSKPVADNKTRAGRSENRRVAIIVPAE

How the values were obtained:
[1] = target: YfiB(27–168) (Pseudomonas aeruginosa PAO1) (UniProt Q9I4L6); assay: crystal structure; YfiB(27–168) alone, 1.58 Å; 0.1 M HEPES pH 7.5, 2% PEG 400, 2.0 M ammonium sulfate, 293 K; both purified
[2] = target: YfiB(59–168) (Pseudomonas aeruginosa PAO1) (UniProt Q9I4L6); assay: AUC; single purified proteins, 400 μL at 3 mg ml^-1 in 20 mM Tris-HCl, 200 mM NaCl; 42,000 rpm, 277 K, interference detection; SEDFIT; both purified
[3] = target: YfiB(59–168) (Pseudomonas aeruginosa PAO1) (UniProt Q9I4L6); assay: AUC; YfiB-YfiR complex at 10 mg ml^-1 in 20 mM Tris-HCl, 200 mM NaCl; 42,000 rpm, 277 K, interference detection; SEDFIT; both purified
[4] = target: YfiB(59–168) (Pseudomonas aeruginosa PAO1) (UniProt Q9I4L6); assay: crystal structure; YfiR(C71S)-YfiB(59–168) complex, 1.97 Å; proteins mixed 1:1; 0.1 M HEPES pH 7.5, 1.8 M ammonium sulfate, 293 K; both purified

Substance	binding [1]	binding [2]	binding [3]	binding [4]
YfiB(27–168) (from UniProt Q9I4L6 27-168) (domain or fragment)	binds weakly			
YfiB(59–168) (from UniProt Q9I4L6 59-168) (domain or fragment)		no binding (tested: 3 mg ml^-1)	no binding (tested: 10 mg ml^-1 (complex sample))	no binding
